The other results are listed elsewhere or left out. The main result of the screen is listed elsewhere. These columns were measured beside it and carry no call. Compounds called inactive in the main read-out are mostly missing here. The note in brackets gives the kind of curve behind each potency; many fits are weak.
Assay: IkB Signaling
Conditions: ABC-DLBCL IkBa-CBG/CBR dual luciferase ratio (green luciferase fused to IkBa over red control in OCI-Ly3 lymphoma cells), 4 h
In short: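 Luminescence ratio of IκBα-fused green versus native red beetle luciferase in OCI-Ly3 cells, 4 h post-doxycycline with compound; red signal alone, scaled from basal (0%) to zero light (-100%), flagged nonspecific or cytotoxic effects.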

[1] = measured here: control luc red channel unless noted
[2] = measured here: IkB-luc green channel
[3] = measured here: control luc red channel

Which AC50 [1] does the source give for `N#Cc1nc(-c2ccccc2F)oc1NC1CCCCC1` here?
The AC50 was 2 µM [rising, partial curve].

With `Cc1cccc(NC(=O)c2c(NC(=O)c3ccccc3)sc3c2CCC3)c1` as the molecule, how does the AC50 [1] read?
Its AC50 is 0.158 µM [falling, full curve].

With `COc1cc(NC(=O)Cc2noc3ccccc23)cc(OC)c1OC` as the molecule, how does the AC50 [1] read?
The AC50 was 15.8 µM [falling, partial curve].

For `Cc1cccc(-n2ncc3c(NNC(=O)c4ccccc4Cl)ncnc32)c1`, which AC50 [1] is on record?
Its AC50 is 1 µM [falling, full curve].

For `O=c1[nH]c(C2CCCN(S(=O)(=O)c3ccccc3)C2)nc2c1nnn2Cc1ccccc1Br` (centres undefined), which AC50 [1] is on record?
Its AC50 is 39.8 µM [falling, single point].

With `Cc1ccc(C)c(Nc2nn3c(=O)c4ccc(C(=O)NCc5ccccc5)cc4nc3s2)c1` as the molecule, how does the AC50 [1] read?
The AC50 was 10 µM [falling, partial curve].

Which AC50 [1] does the source give for `Cc1cccc(C)c1NC(=O)Cn1cc(C(=O)C2CC2)c2ccccc21` here?
Its AC50 is 6.31 µM [rising, single point].

With `COc1cccc(C(=O)Nc2nnc(S(=O)(=O)N3CCCc4ccccc43)s2)c1` as the molecule, how does the AC50 [1] read?
The AC50 was 39.8 µM [falling, single point].

Which AC50 [1] does the source give for `CCS(=O)(=O)NCCc1csc2nc(-c3ccc(OC)cc3)nn12` here?
The AC50 was 12.6 µM [rising, partial curve].

For `Cc1noc(C)c1C(=O)Nc1nc(C23CC4CC(CC(C4)C2)C3)cs1`, which AC50 [1] is on record?
The AC50 was 3.16 µM [falling, single point].

For `Cc1ccc(C)c(CN2C(=O)c3ccccc3S(=O)c3ccc(C(=O)N4CCCCC4)cc32)c1` (centres undefined), which AC50 [1] is on record?
Its AC50 is 20 µM [falling, partial curve].

With `O=C(Nc1ccc(F)cc1F)C1CCN(C(=O)c2cnn(-c3ccccc3)c2-n2cccc2)CC1` as the molecule, how does the AC50 [1] read?
The AC50 was 25.1 µM [falling, single point].

For `CCN1/C(=C\C(C)=O)Sc2ccc(OC)cc21`, which AC50 [1] is on record?
The AC50 was 15.8 µM [falling, single point].

With `Oc1ccc(C(c2nnnn2C2CCCC2)N2CCc3ccccc3C2)cc1` (centres undefined) as the molecule, how does the AC50 [1] read?
Its AC50 is 25.1 µM [falling, partial curve].

With `Cn1cccc1-c1cc2n(n1)CCC(=O)N2CCCC(=O)NCc1cccc(Cl)c1` as the molecule, how does the AC50 [1] read?
Its AC50 is 10 µM [falling, partial curve, poor fit].

Which AC50 [1] does the source give for `COc1ccc2c(c1)c(CC(=O)Nc1c(C)cccc1C)c(C)n2C(=O)c1ccc(Cl)cc1` here?
Its AC50 is 10 µM [falling, full curve].

Which AC50 [1] does the source give for `CCn1c(SCC(=O)Nc2ccccc2N2CCCCC2)nc2c1c(=O)n(C)c(=O)n2C` here?
Its AC50 is 25.1 µM [falling, partial curve].

Which AC50 [1] does the source give for `Cc1cc(C)cc(NC(=O)CCn2cnc3ccccc3c2=O)c1` here?
The AC50 was 15.8 µM [rising, partial curve, poor fit].

For `CCOc1ccccc1NC(=O)Cn1c(=O)n(-c2ccc(C)cc2)c(=O)c2c1cnn2C`, which AC50 [1] is on record?
Its AC50 is 0.0251 µM [falling, full curve].

Which AC50 [1] does the source give for `CCOc1ccc(OCc2ccc(C(=O)N3CCCC3)o2)cc1` here?
The AC50 was 15.8 µM [falling, partial curve].

Which AC50 [1] does the source give for `COc1ccc(NC(=O)c2ccc(NC(=O)CCS(=O)(=O)c3cccs3)cc2)cc1Cl` here?
Its AC50 is 10 µM [falling, partial curve].

Which AC50 [1] does the source give for `Cc1ccc(-n2nnnc2SCC(=O)NCCc2ccccc2)cc1C` here?
Its AC50 is 20 µM [falling, partial curve].

Which AC50 [1] does the source give for `CSCCC(NC(=O)c1ccccc1)c1nc(-c2ccccc2)no1` (centres undefined) here?
Its AC50 is 15.8 µM [falling, partial curve].

For `Cc1ccc(S(=O)(=O)NCC(=O)N(CC(=O)NCC2CCCO2)C2CCCC2)cc1` (centres undefined), which AC50 [1] is on record?
The AC50 was 6.31 µM [rising, single point] [measured here: IkB-luc green channel].

Which results are given for `O=C(Nc1cccc(S(=O)(=O)C(F)F)c1)c1ccc(Cl)c(S(=O)(=O)N2CCOCC2)c1`?
AC50 [2]: 39.8 µM [rising, single point]; AC50 [3]: 6.31 µM [falling, single point]

Which AC50 [1] does the source give for `COc1ccc(NC(=O)Nc2nnc(N3CCCC3)s2)cc1` here?
Its AC50 is 20 µM [falling, partial curve].

For `CCOC(=O)c1[nH]c(C)c(C(=O)N2CCN(c3cccc(Cl)c3)CC2)c1C`, which AC50 [1] is on record?
The AC50 was 15.8 µM [falling, partial curve].

For `Cc1ccc2c(=O)cc(C(=O)N(Cc3ccc(C(C)(C)C)cc3)C3CCS(=O)(=O)C3)oc2c1` (centres undefined), which AC50 [1] is on record?
The AC50 was 6.31 µM [falling, partial curve].

For `Cc1ccc(NC(=O)c2c(C)oc3ccc(O)c(CN4CCOCC4)c23)cc1`, which AC50 [1] is on record?
Its AC50 is 12.6 µM [falling, partial curve].

With `Cc1ccc(-n2ncc(C(=O)NCc3ccc4c(c3)OCO4)c2C2CCN(C(=O)OC(C)(C)C)CC2)c(C)c1` as the molecule, how does the AC50 [1] read?
Its AC50 is 31.6 µM [falling, single point].

For `CCc1nnc(NC(=O)CSc2nnc(-c3ccccc3O)n2-c2ccc(C)cc2C)s1`, which AC50 [1] is on record?
Its AC50 is 15.8 µM [falling, partial curve].

With `COC(=O)c1ccc(NC(=O)c2cc(S(=O)(=O)N3CCOCC3)cn2C)cc1` as the molecule, how does the AC50 [1] read?
Its AC50 is 12.6 µM [falling, single point].

With `COc1ccc(Cn2c(=O)c3oc4ccccc4c3n(CC(=O)Nc3c(C)cccc3C)c2=O)cc1` as the molecule, how does the AC50 [1] read?
The AC50 was 39.8 µM [falling, single point].

Which AC50 [1] does the source give for `Cc1ccccc1Cn1c2ccccc2c2cnn(CC(=O)NC3CCCCCC3)c(=O)c21` here?
The AC50 was 5.01 µM [falling, partial curve].

With `CN1CCN(C(=O)c2ccc3c(c2)N(Cc2ccc(C(F)(F)F)cc2)C(=O)c2ccccc2S3)CC1` as the molecule, how does the AC50 [1] read?
The AC50 was 20 µM [falling, partial curve].

For `CN(CC(=O)Nc1cccc(F)c1)S(=O)(=O)c1ccc2c(c1)n(C)c(=O)c(=O)n2C`, which AC50 [1] is on record?
Its AC50 is 0.2 µM [rising, full curve, poor fit].

Which AC50 [1] does the source give for `CC(=O)c1cccc(NC(=O)CSc2ncc3c(n2)-c2cc(Cl)ccc2N(Cc2ccccc2)S3(=O)=O)c1` here?
Its AC50 is 10 µM [falling, partial curve].

For `COc1ccc(S(=O)(=O)NCc2nc(-c3ccccc3)no2)cc1`, which AC50 [1] is on record?
The AC50 was 5.01 µM [falling, partial curve].

Which AC50 [1] does the source give for `O=C(CN(C(=O)CSc1nnc(COc2ccccc2)o1)c1ccc(F)cc1)NC1CCCC1` here?
The AC50 was 15.8 µM [falling, partial curve].

For `Oc1ccc(-c2nc3ccc(Cl)cn3c2Nc2ccc(Cl)cc2)cc1`, which AC50 [1] is on record?
Its AC50 is 12.6 µM [falling, partial curve].

For `Cc1ccccc1NC(=O)Cn1nc(-c2ccccc2)nc(Cc2ccccc2)c1=O`, which AC50 [1] is on record?
The AC50 was 25.1 µM [falling, single point].

With `COc1ccc(CNC(=O)CSc2nnc(C)c3c(C)n(-c4ccccc4)nc23)c(OC)c1` as the molecule, how does the AC50 [1] read?
Its AC50 is 5.01 µM [falling, partial curve].

For `COc1ccccc1NS(=O)(=O)c1ccc(OC)c(OC)c1`, which AC50 [1] is on record?
The AC50 was 10 µM [falling, partial curve].

With `CC(C)(C)C(=O)CSc1nc2ccsc2c(=O)n1Cc1ccccc1Cl` as the molecule, how does the AC50 [1] read?
The AC50 was 3.98 µM [rising, partial curve].

With `Cc1c(C(=O)NCC2COc3ccccc3O2)oc2ccc(S(=O)(=O)N3CCOCC3)cc12` (centres undefined) as the molecule, how does the AC50 [1] read?
Its AC50 is 10 µM [falling, partial curve].

Which AC50 [1] does the source give for `COc1cccc(CSc2nc3n(n2)C(c2ccc(C(=O)O)cc2)C(C(=O)Nc2ccccc2)=C(C)N3)c1` (centres undefined) here?
The AC50 was 0.158 µM [falling, full curve, poor fit].

Which AC50 [1] does the source give for `Cc1ccc(Cn2nc(C)c(NC(=O)c3noc4c3CCCCC4)c2C)cc1` here?
The AC50 was 15.8 µM [falling, partial curve].

For `CSc1ccccc1-c1nnc(NC(=O)c2ccc3c(c2)OCCO3)o1`, which AC50 [1] is on record?
Its AC50 is 20 µM [falling, partial curve].

With `CC(COc1ccccc1)N(CCCl)Cc1ccccc1` (centres undefined) as the molecule, how does the AC50 [1] read?
Its AC50 is 39.8 µM [falling, partial curve, poor fit].

With `Cc1ccc(-n2nc(C(=O)N3CCN(c4ccccc4F)CC3)c(=O)n(C)c2=O)cc1` as the molecule, how does the AC50 [1] read?
The AC50 was 31.6 µM [falling, single point].

For `Nc1ncn([C@@H]2O[C@H](CO)[C@@H](O)[C@H]2O)c(=O)n1`, which AC50 [1] is on record?
Its AC50 is 12.6 µM [falling, partial curve].

Which AC50 [1] does the source give for `CCCCCc1ccc(-c2ccc(Br)cc2)nc1` here?
The AC50 was 10 µM [falling, partial curve].

With `Clc1ccccc1CSc1nnc(-c2ccccn2)n1Cc1ccco1` as the molecule, how does the AC50 [1] read?
The AC50 was 10 µM [falling, partial curve].

Which AC50 [1] does the source give for `Cc1cc(Br)ccc1NC(=O)CSc1c2c(nc3ccccc13)CCC2` here?
The AC50 was 12.6 µM [falling, partial curve].

With `CCOc1ccc(CNC(=O)CCc2c(C)nn(-c3ccc(N4CCCCC4)nn3)c2C)cc1` as the molecule, how does the AC50 [1] read?
The AC50 was 31.6 µM [falling, single point].

For `CCCCC(CC)CNC(=O)Cc1ccc(-n2c(=O)[nH]c3ccccc3c2=O)cc1` (centres undefined), which AC50 [1] is on record?
Its AC50 is 15.8 µM [falling, single point].

With `CCCCC12CN3CC(C)(CN(C1)C3c1c[nH]c3ccccc13)C2=O` (centres undefined) as the molecule, how does the AC50 [1] read?
Its AC50 is 25.1 µM [falling, single point].

Which AC50 [1] does the source give for `Cc1cc(C)n(-c2ccc(C(=O)Nc3ccccn3)cc2)n1` here?
Its AC50 is 15.8 µM [falling, partial curve].

For `CCCn1c(CCC(=O)O)ccc1-c1cccs1`, which AC50 [2] is on record?
Its AC50 is 25.1 µM [rising, single point].

What about the AC50 [3] of the same molecule?
Its AC50 is 39.8 µM [falling, single point].

Which AC50 [1] does the source give for `COc1ccc(N2CCN(S(=O)(=O)c3ccc(-c4coc(C)n4)cc3)CC2)cc1` here?
Its AC50 is 3.16 µM [falling, partial curve, poor fit].

For `O=C1CC(N2CCC(O)(c3ccc(Cl)cc3)CC2)C(=O)N1Cc1ccc(N2CCCC2=O)cc1` (centres undefined), which AC50 [1] is on record?
Its AC50 is 12.6 µM [falling, partial curve].

For `Cc1c(CCNC(=O)c2ccc(C(C)(C)C)cc2)sc2nc(-c3ccc(F)cc3)nn12`, which AC50 [1] is on record?
The AC50 was 3.98 µM [falling, partial curve].
